Binding data for 1 molecule are collected here from PMC7249644.

Results are given in words; binding and its absence hold for the method and conditions named. Binding seen in cells or lysates may run through a third protein. Where a sequence is shown, tags or fusion partners need not be part of it.

The target in this test is T1, OsSHMT fused with a YFP fragment for BiFC (rice (Oryza sativa subsp. indica, Dular)) (UniProt Q10D68).
T1 sequence: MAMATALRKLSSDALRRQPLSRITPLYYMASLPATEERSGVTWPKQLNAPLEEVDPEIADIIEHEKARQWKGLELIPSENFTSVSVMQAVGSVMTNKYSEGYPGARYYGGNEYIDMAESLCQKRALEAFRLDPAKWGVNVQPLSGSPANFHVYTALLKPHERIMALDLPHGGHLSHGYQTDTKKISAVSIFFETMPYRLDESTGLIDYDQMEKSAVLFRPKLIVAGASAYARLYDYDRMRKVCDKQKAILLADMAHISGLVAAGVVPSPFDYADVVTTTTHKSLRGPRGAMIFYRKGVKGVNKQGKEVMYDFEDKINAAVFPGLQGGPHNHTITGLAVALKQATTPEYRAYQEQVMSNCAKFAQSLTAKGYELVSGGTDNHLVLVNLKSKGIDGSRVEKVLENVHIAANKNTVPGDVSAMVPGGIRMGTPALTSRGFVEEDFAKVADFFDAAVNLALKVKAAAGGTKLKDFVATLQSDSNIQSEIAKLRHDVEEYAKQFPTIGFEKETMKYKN
As to the kind of experiment: split reporter; BiFC: YFPn and YFPc fusions co-expressed by transient transformation in leaves of Nicotiana benthamiana; YFP fluorescence by laser confocal microscopy, 488-nm excitation.

B1: OsNIP2;1 (Lsi1-encoded nodulin 26-like intrinsic protein) fused with the N-terminal domain of YFP (protein, UniProt Q6Z2T3 1-298)
chain: MASNNSRTNSRANYSNEIHDLSTVQNGTMPTMYYGEKAIADFFPPHLLKKVVSEVVATFLLVFMTCGAAGISGSDLSRISQLGQSIAGGLIVTVMIYAVGHISGAHMNPAVTLAFAVFRHFPWIQVPFYWAAQFTGAICASFVLKAVIHPVDVIGTTTPVGPHWHSLVVEVIVTFNMMFVTLAVATDTRAVGELAGLAVGSAVCITSIFAGAISGGSMNPARTLGPALASNKFDGLWIYFLGPVMGTLSGAWTYTFIRFEDTPKEGSSQKLSSFKLRRLRSQQSIAADDVDEMENIQV
As to B1, the binding entry was “no binding”.
